Results are given in words; binding and its absence hold for the method and conditions named. Some results given as binding are weak or reduced against the parent protein; the word gives no strength.
Tests used:
[1] = biological target: Neural cell adhesion molecule (NCAM, CD56) (human) (UniProt P13591); experiment: confocal microscopy of Saos-2 cells with fluorescently labeled peptide
[2] = biological target: Neural cell adhesion molecule (NCAM, CD56) (human) (UniProt P13591); experiment: FACS on ES-2 cells
[3] = biological target: Neural cell adhesion molecule (NCAM, CD56) (human) (UniProt P13591); experiment: FACS on ES2 cells

Sequences of proteins named here, by UniProt entry; tags and fusion partners are left off. Residues count along the entry.
UniProt P13591, residues 20-858: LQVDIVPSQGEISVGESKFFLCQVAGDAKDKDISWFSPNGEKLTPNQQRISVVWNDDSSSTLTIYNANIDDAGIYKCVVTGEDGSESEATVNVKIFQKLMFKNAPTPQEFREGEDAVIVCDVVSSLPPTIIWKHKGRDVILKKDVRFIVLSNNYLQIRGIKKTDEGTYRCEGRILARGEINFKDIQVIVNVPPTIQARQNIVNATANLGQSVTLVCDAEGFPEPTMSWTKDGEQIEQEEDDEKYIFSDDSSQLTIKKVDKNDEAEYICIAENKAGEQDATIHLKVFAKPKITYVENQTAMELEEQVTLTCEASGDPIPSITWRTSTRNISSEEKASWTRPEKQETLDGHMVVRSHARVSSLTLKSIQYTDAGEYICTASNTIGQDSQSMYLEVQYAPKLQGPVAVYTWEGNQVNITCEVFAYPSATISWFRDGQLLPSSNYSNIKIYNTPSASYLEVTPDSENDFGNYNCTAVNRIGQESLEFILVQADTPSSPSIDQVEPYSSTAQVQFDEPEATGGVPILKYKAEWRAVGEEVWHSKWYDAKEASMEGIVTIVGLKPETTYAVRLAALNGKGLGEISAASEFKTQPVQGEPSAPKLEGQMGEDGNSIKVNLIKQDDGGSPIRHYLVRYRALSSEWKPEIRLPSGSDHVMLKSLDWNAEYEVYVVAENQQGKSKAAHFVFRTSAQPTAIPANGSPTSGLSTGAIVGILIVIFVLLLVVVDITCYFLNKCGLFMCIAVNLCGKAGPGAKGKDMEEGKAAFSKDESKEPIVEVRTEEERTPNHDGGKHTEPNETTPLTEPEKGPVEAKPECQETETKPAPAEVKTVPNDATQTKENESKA

Binder	binding [1]	binding [2]	binding [3]
GDDSDEEN (N-terminal 5(6)-carboxyfluorescein (CF) label; called FITC-labeled in paragraph 576) [NCAM-targeting peptide (NTP), fluorescein-labeled]	binds		
GASKKPKRNIKA (N-terminal 5(6)-carboxyfluorescein (CF) label) [NCAM targeting peptide C3 (SEQ ID NO:3), CF-labeled]		binds	binds
